B1: MAb8: murine C-terminal anti-hPG monoclonal antibody, hybridoma 1C10D3B9, VH SEQ ID NO:59, VL SEQ ID NO:63 (antibody, V domains shown)
VH: EVQLVESGGGLVKPGGSLKLSCAASGFTFTTYAMSWVRQTPEKRLEWVATISSGGTYTYYPDSVKGRFTISRDNAKNALYLQMSSLRSEDTAMYYCATQGNYSLDFWGQGTSLTVSS
VL: DIVMTQAASSNPVTLGTSASISCRSSKSLRHTKGITFLYWYLQKPGQSPQLLIYQMSNLASGVPDRFSSSGSGTDFTLRISRVEAEDLGVYYCAQNLELPLTFGAGTKLELK
B2: MAb3: murine N-terminal anti-hPG monoclonal antibody, hybridoma 6B5B11C10, VH SEQ ID NO:12, VL SEQ ID NO:13 (antibody, V domains shown)
VH: EVQLQQSGTVLARPGASVKMSCKASGYIFTSYWVHWVKQRPGQGLEWIGGFYPGNSDSRYNQKFKGKATLTAVTSASTAYMDLSSLTNEDSAVYFCTRRDSPQYWGQGTTLTVSS
VL: DVLMTQTPLSLPVSLGDQASISCRSSQSIVHSNGNTYLEWYLQKPGQSPKLLIYKVSNRFSGVPDRFSGSGSGTDFTLKISRLEAEDLGVYYCFQGSHVPFTFGGGTKLEIK
B3: MAb19: murine N-terminal anti-hPG monoclonal antibody, hybridoma 1B3B4F11, VH SEQ ID NO:62, VL SEQ ID NO:66 (antibody, V domains shown)
VH: DVQLQESGPGLVKPSQSLSLTCTVTGYSITSDYAWNWIRQFPGNKLEWMGYISFSGYTSYNPSLKSRISVTRDTSRNQFFLQLTSVTTEDTATYYCAREVNYGDSYHFDYWGQGTIVTVSS
VL: QLALTQSSSASFSLGASAKLTCTLSSQHRTYTIEWYQQQSLKPPKYVMEVKKDGSHSTGHGIPDRFSGSSSGADRYLSISNIQPEDEAIYICGVGDAIKGQSVFVFGGGTKVTVL
B4: MAb4: murine N-terminal anti-hPG monoclonal antibody, hybridoma 20D2C3G2, VH SEQ ID NO:14, VL SEQ ID NO:15 (antibody, V domains shown)
VH: QVQLQQSGAELMKPGASVKISCKATGYTFSSSWIEWLKQRPGHGLEWIGEFLPGSGSTDYNEKFKGKATFTADTSSDTAYMLLSSLTSEDSAVYYCATDGNYDWFAYWGQGTLVTVSA
VL: DLVMTQTPLSLPVSLGDQASISCRSSQSLVHSSGVTYLHWYLQKPGQSPKLLIYKVSNRFSGVPDRFSGSGSGTDFTLKISRVEAEDLGVYFCSQSTHVPPTFGSGTKLEIK

Test system: hPG
Experiment: Epitope mapping by SPOT technique and alanine scanning
Type: binding, human
Conditions: for epitope within PG peptide antigen SWKPRSQQPDAPLG: N-terminal anti-hPG monoclonal antibodies, epitopes comprise at least this sequence

Row | Molecule | region of hPG recognized (N- or C-terminal epitope) | epitope within PG peptide antigen SWKPRSQQPDAPLG
1 | B1 | C-terminal epitopes of hPG | –
2 | B2 | – | DAPLG
3 | B3 | – | WKPRSQQPD
4 | B4 | – | WKPRSQQPDAPLG

Reference: patent US9217032B2, “Methods for treating colorectal cancer” (LES LABORATOIRES SERVIER, priority 2010, dated 2015)
